Consider one compound from publication PMC4079752 (Clinical cancer research : an official journal of the …, 2014).

By UniProt entry, the sequences of proteins in these tests, tags left out. Where a name states a change or a piece, a line headed by the entry shows the natural chain unless it says otherwise.
UniProt P05804: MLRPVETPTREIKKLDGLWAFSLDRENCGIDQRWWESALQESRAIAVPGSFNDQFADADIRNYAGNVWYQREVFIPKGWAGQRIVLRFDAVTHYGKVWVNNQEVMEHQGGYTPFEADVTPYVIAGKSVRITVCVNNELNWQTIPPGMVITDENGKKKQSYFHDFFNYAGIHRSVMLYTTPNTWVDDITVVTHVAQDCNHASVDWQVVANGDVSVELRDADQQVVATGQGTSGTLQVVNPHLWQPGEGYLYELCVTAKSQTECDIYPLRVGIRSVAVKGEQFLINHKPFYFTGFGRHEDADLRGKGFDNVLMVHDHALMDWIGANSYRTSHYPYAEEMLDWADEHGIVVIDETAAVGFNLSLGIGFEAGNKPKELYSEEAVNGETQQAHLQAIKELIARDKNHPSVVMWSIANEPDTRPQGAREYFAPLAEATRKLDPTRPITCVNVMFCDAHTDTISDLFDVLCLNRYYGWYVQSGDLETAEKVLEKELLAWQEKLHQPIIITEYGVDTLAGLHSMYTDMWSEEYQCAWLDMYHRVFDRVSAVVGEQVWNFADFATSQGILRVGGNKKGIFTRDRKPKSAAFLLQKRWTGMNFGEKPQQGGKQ

This assay concerns the target bacterial β-glucuronidase (E. coli GUS) (Escherichia coli, UniProt P05804). Kind of assay: GUS enzyme activity assay with purified enzyme. The format is biochemical.

The term IC50 denotes the point on the concentration scale where inhibition reaches its midpoint. Low values mean greater potency, high ones weaker potency.

The structures appear in SMILES notation.

For the compound `Clc1ccc2c(c1)C(N1CCNCC1)=Nc1ccccc1O2` [AMOX, amoxapine], the IC50 was found to be 796 ± 29 nM.
